Key:
[1] = HPLC potentiometric detection of organic acids, ionophore-based electrode; conditions: tartaric acid; pmol injected; electrode comprising the compound; eluent 1 mM H3PO4
[2] = as above; conditions: for detection limit: minimum amount of acid required for detection: malonic acid, pmol injected, electrode comprising the compound, eluent 1 mM H3PO4
[3] = as above; conditions: lactic acid; pmol injected; electrode comprising the compound; eluent 1 mM H3PO4
[4] = as above; conditions: citric acid; pmol injected; electrode comprising the compound; eluent 1 mM H3PO4
[5] = as above; conditions: succinic acid; pmol injected; electrode comprising the compound; eluent 1 mM H3PO4

SMILES	detection limit: minimum amount of acid required for detection [1]	detection limit: minimum amount of acid required for detection [2]	detection limit: minimum amount of acid required for detection [3]	detection limit: minimum amount of acid required for detection [4]	detection limit: minimum amount of acid required for detection [5]	detection limit for malonic acid ([2]; coating 33.8% PVC, 66% o-NPOE, 0.2% MTDDACl, 1% ligand 3)
CCCCCCCCCCCCCCCCCCNC(=O)NCCN(CCNC(=O)NCCCCCCCCCCCCCCCCCC)CCNC(=O)NCCCCCCCCCCCCCCCCCC [Compound 1]	20 pmol	1.6 pmol	830 pmol	23 pmol	77 pmol	
O=C(NCCN(CCNC(=O)Nc1ccccc1)CCNC(=O)Nc1ccccc1)Nc1ccccc1 [Compound 2]	12 pmol	1.0 pmol	910 pmol	10 pmol	56 pmol	
CCCCCCCCCCCCCCCCCCNC(=O)Nc1cccc(N)n1 [Compound 3]	11 pmol	1.1 pmol	650 pmol	7 pmol	47 pmol	low picogram range
CCCCCCCCCCCCCCCCCCNC(=O)Nc1cccc(NC(=O)NCCCCCCCCCCCCCCCCCC)n1 [Compound 4]	23 pmol	1.6 pmol	1200 pmol	15 pmol	86 pmol	
CCCCCCCCCCCC[N+](C)(CCCCCCCCCCCC)CCCCCCCCCCCC.[Cl-] [MTDDACI, methyltridodecylammoniumchloride, reference compound]	200 pmol	200 pmol	1000 pmol	200 pmol	700 pmol	
